In patent US20050250692A1:
These are yes or no findings as the source states them, for the method shown. Binding calls can cover weak binding; strength is not graded here.

Molecular target: TβR-V/LRP-1 in mink lung epithelial cells (Mv1Lu cells) (mink)
Assay: specific binding of 2 nM 125I-α2M* to Mv1Lu cells at pH 7.4, 0 C

binding: binds
B1: α2M activated by methylamine (α2M*) (ligand, human, UniProt P01023 24-1474, looked up)
chain: SVSGKPQYMVLVPSLLHTETTEKGCVLLSYLNETVTVSASLESVRGNRSLFTDLEAENDVLHCVAFAVPKSSSNEEVMFLTVQVKGPTQEFKKRTTVMVKNEDSLVFVQTDKSIYKPGQTVKFRVVSMDENFHPLNELIPLVYIQDPKGNRIAQWQSFQLEGGLKQFSFPLSSEPFQGSYKVVVQKKSGGRTEHPFTVEEFVLPKFEVQVTVPKIITILEEEMNVSVCGLYTYGKPVPGHVTVSICRKYSDASDCHGEDSQAFCEKFSGQLNSHGCFYQQVKTKVFQLKRKEYEMKLHTEAQIQEEGTVVELTGRQSSEITRTITKLSFVKVDSHFRQGIPFFGQVRLVDGKGVPIPNKVIFIRGNEANYYSNATTDEHGLVQFSINTTNVMGTSLTVRVNYKDRSPCYGYQWVSEEHEEAHHTAYLVFSPSKSFVHLEPMSHELPCGHTQTVQAHYILNGGTLLGLKKLSFYYLIMAKGGIVRTGTHGLLVKQEDMKGHFSISIPVKSDIAPVARLLIYAVLPTGDVIGDSAKYDVENCLANKVDLSFSPSQSLPASHAHLRVTAAPQSVCALRAVDQSVLLMKPDAELSASSVYNLLPEKDLTGFPGPLNDQDNEDCINRHNVYINGITYTPVSSTNEKDMYSFLEDMGLKAFTNSKIRKPKMCPQLQQYEMHGPEGLRVGFYESDVMGRGHARLVHVEEPHTETVRKYFPETWIWDLVVVNSAGVAEVGVTVPDTITEWKAGAFCLSEDAGLGISSTASLRAFQPFFVELTMPYSVIRGEAFTLKATVLNYLPKCIRVSVQLEASPAFLAVPVEKEQAPHCICANGRQTVSWAVTPKSLGNVNFTVSAEALESQELCGTEVPSVPEHGRKDTVIKPLLVEPEGLEKETTFNSLLCPSGGEVSEELSLKLPPNVVEESARASVSVLGDILGSAMQNTQNLLQMPYGCGEQNMVLFAPNIYVLDYLNETQQLTPEIKSKAIGYLNTGYQRQLNYKHYDGSYSTFGERYGRNQGNTWLTAFVLKTFAQARAYIFIDEAHITQALIWLSQRQKDNGCFRSSGSLLNNAIKGGVEDEVTLSAYITIALLEIPLTVTHPVVRNALFCLESAWKTAQEGDHGSHVYTKALLAYAFALAGNQDKRKEVLKSLNEEAVKKDNSVHWERPQKPKAPVGHFYEPQAPSAEVEMTSYVLLAYLTAQPAPTSEDLTSATNIVKWITKQQNAQGGFSSTQDTVVALHALSKYGAATFTRTGKAAQVTIQSSGTFSSKFQVDNNNRLLLQQVSLPELPGEYSMKVTGEGCVYLQTSLKYNILPEKEEFPFALGVQTLPQTCDEPKAHTSFQISLSVSYTGSRSASNMAIVDVKMVSGFIPLKPTVKMLERSNHVSRTEVSSNHVLIYLDKVSNQTLSLFFTVLQDVPVRDLKPAIVKVYDYYETDEFAIAEYNAPCSKDLGNA
modifications: activated by methylamine; 125I-labelled where used as tracer
